This assay has as its system CD2F1 mice, P1798 lymphosarcoma sc, tumor weight T/C. Nature of the assay: NCI In Vivo Anticancer Drug Screen. Data for tumor model P1798 Lymphosarcoma (subcutaneous) in CD2F1 (CDF1) mice. The settings on record: T/C endpoint: mean tumor weight, higher T/C = larger tumour. As to the method:
The antitumor activity of compounds was measured in mice bearing transplantable tumors. Survival or tumor size were measured and the results are expressed as the measurement made in the treated group (T) divided by the measurement made in the vehicle treated control group (C). The tumor model used in this assay is P1798 Lymphosarcoma (subcutaneous) in CD2F1 (CDF1) mice

[1] abbreviates: dose: 10.0 mg/kg/injection, schedule: Q01DX010 (ip), vehicle: saline.
[2] abbreviates: dose: 250.0 mg/kg/injection, schedule: Q01DX010 (ip), vehicle: saline.
The mark [3] stands for this setting: dose: 5.0 mg/kg/injection, schedule: Q01DX010 (ip), vehicle: saline.
Setting [4] is: dose: 100.0 mg/kg/injection, schedule: Q01DX010 (ip), vehicle: saline.
Where [5] appears, read: dose: 200.0 mg/kg/injection, schedule: Q01DX010 (ip), vehicle: saline.
Where [6] appears, read: dose: 100.0 mg/kg/injection, schedule: Q01DX010 (sc), vehicle: steroid suspending solution.
[7] abbreviates: dose: 120.0 mg/kg/injection, schedule: Q01DX010 (ip), vehicle: saline.

The list is a part of this screen's results and no random one: it is rich in T/C values a quarter to a half above the control, in often repeated tests (any T/C) and in doses without a T/C. Other doses and runs of a compound stand elsewhere. T/C gives the treated animals as a percentage of the vehicle group. Schedule codes are those of the source, read here as Q, the interval in days (D) or hours (H), X, the number of doses. Some entries were tested several times; the values are given in rising order. Additions like (4×) give the number of equal values in this list. Some doses have a count of surviving animals in place of a T/C: the source holds a T/C of zero for them, seemingly a mark for toxic or unscored doses. Counts of survivors are from the toxicity check (mostly the fifth day) where no day follows; animals may have died later.

`NC(Cc1ccc(N(CCCl)CCCl)cc1)C(=O)O` (stereo unspecified): the survivor count is listed as 2 of 6 under setting [1] and 0 of 6 (dose: 20.0 mg/kg/injection, schedule: Q01DX010 (ip), vehicle: saline).
`CC(=O)Nc1ccc(/C=N/Nc2ccc([N+](=O)[O-])cn2)cc1`: the survivor count (dose: 500.0 mg/kg/injection, schedule: Q01DX010 (ip), vehicle: saline) was 3 of 6.
Regarding `O=C1NC2C(NC(=O)N2Cl)N1Cl` (stereo unspecified), the survivor count (dose: 160.0 mg/kg/injection, schedule: Q01DX010 (ip), vehicle: saline) is listed as 0 of 6.
Turning to `COc1ccc2cc3[n+](cc2c1OC)CCc1cc2c(cc1-3)OCO2`, the survivor count was 0 of 6 (dose: 25.0 mg/kg/injection, schedule: Q01DX011 (ip), vehicle: saline); 0 of 6 (dose: 50.0 mg/kg/injection, schedule: Q01DX011 (ip), vehicle: saline); 0 of 6 (dose: 75.0 mg/kg/injection, schedule: Q01DX011 (ip), vehicle: saline).
Take `CCCSc1ncnc2nc[nH]c12`: for the setting “dose: 125.0 mg/kg/injection, schedule: Q01DX010 (ip), vehicle: saline, evaluated on day 12”, the T/C is 147 % of control. Further, the survivor count under setting [2] is 0 of 6.
Turning to `O=C1C=Cc2ccc(O)cc2C1=O`, the survivor count is on record as 3 of 6 under setting [3] and 0 of 6 under setting [1].
With `N#Cc1ccc(S(N)(=O)=O)cc1`, the survivor count is recorded as 3 of 6 (dose: 73.0 mg/kg/injection, schedule: Q01DX010 (ip), vehicle: saline); 0 of 6 (dose: 111.0 mg/kg/injection, schedule: Q01DX010 (ip), vehicle: saline); 1 of 6 (dose: 166.0 mg/kg/injection, schedule: Q01DX010 (ip), vehicle: saline); 0 of 6 under setting [2].
As for `NCCCCCCNCCCCCCN`, the survivor count by setting is: under setting [4], 0 of 6; under setting [5], 0 of 6.
Consider `Oc1cc(CN(CCCl)CCCl)c(O)cc1CN(CCCl)CCCl`, for which the survivor count under setting [3] is listed as 1 of 6.
With `CN(N=O)C(=O)NC(C=O)C(O)C(O)C(O)CO` (stereo unspecified), the survivor count (dose: 135.0 mg/kg/injection, schedule: Q01DX010 (ip), vehicle: saline) was 0 of 6 and 1 of 6.
For `CC1C[C@@H]2[C@H]([C@@H](O)C[C@@]3(C)[C@H]2CC[C@]3(O)C(=O)CF)[C@@]2(C)CCC(=O)C=C12` (stereo partly specified), where the note is “dose: 75.0 mg/kg/injection, schedule: Q01DX010 (sc), vehicle: steroid suspending solution, run until all animals had died”, the T/C was 130 % of control.
With `c1ccc(CNc2ncnc3[nH]ncc23)cc1`, the T/C (dose: 16.0 mg/kg/injection, schedule: Q01DX010 (ip), vehicle: saline, evaluated on day 12) is 141 % of control. Moreover, the survivor count (dose: 32.0 mg/kg/injection, schedule: Q01DX010 (ip), vehicle: saline) is given as 1 of 6 and the survivor count (dose: 64.0 mg/kg/injection, schedule: Q01DX010 (ip), vehicle: saline) is listed as 1 of 6.
For `N#CCCCCCNC(=O)CCCCC(=O)NCCCCCC#N`, the T/C (dose: 50.0 mg/kg/injection, schedule: Q01DX010 (ip), vehicle: saline, evaluated on day 12) is 126 % of control.
On to `S=c1nc[nH]c2nc[nH]c12`, for which the survivor count (dose: 80.0 mg/kg/injection, schedule: Q01DX010 (ip), vehicle: alkali diluted with saline) is on record as 3 of 6.
Take `CC(=O)OCC(=O)[C@@]1(O)CC[C@H]2[C@@H]3C[C@H](C)C4=CC(=O)C=C[C@]4(C)[C@H]3[C@@H](O)C[C@@]21C`: the survivor count under setting [6] was 3 of 6.
`O=C(CNC(=O)OCc1ccccc1)NCCCCCCNCCCCCCNC(=O)CNC(=O)OCc1ccccc1`: the T/C (dose: 25.0 mg/kg/injection, schedule: Q01DX010 (ip), vehicle: saline, evaluated on day 12) is 129 % of control. In addition, under setting [5], the survivor count is given as 3 of 6.
Turning to `Nc1ncnc2c1ccn2C1OC(CO)C(O)C1O` (stereo unspecified), for the setting “dose: 0.16 mg/kg/injection, schedule: Q01DX010 (ip), vehicle: saline, evaluated on day 12”, the T/C is 134 % of control.
With `C[C@]12CCC(=O)C=C1CC[C@@H]1[C@@H]2[C@@H](O)C[C@@]2(C)[C@H]1CC[C@]2(O)C(=O)CO`, the survivor count under setting [6] was 2 of 6 and 3 of 6.
Consider `CCN(CC)CCNc1ccc(C)c2sc3ccccc3c(=O)c12`, for which the survivor count is 3 of 6 under setting [4] and 0 of 6 under setting [5].
For the compound `CC(=O)OC1C=CC(=O)OC1C1OC1C` (stereo unspecified), for the setting “dose: 13.0 mg/kg/injection, schedule: Q01DX011 (ip), vehicle: saline, evaluated on day 12”, the T/C is 134 % of control. Moreover, the survivor count (dose: 19.0 mg/kg/injection, schedule: Q01DX011 (ip), vehicle: saline) was 1 of 6; the survivor count (dose: 29.0 mg/kg/injection, schedule: Q01DX011 (ip), vehicle: saline) was 0 of 6; the survivor count (dose: 45.0 mg/kg/injection, schedule: Q01DX011 (ip), vehicle: saline) is reported as 0 of 6.
On to `N#CCSc1ncnc2nc[nH]c12`, for which, under “dose: 15.0 mg/kg/injection, schedule: Q01DX010 (ip), vehicle: saline, evaluated on day 12”, the T/C was 135 % of control. Besides, under setting [7], the survivor count is recorded as 3 of 6.
With `CC(=O)[C@H]1CC[C@H]2[C@@H]3C[C@H](C)C4=CC(=O)CC[C@]4(C)[C@H]3C(=O)C[C@]12C`, the T/C runs as follows: (dose: 25.0 mg/kg/injection, schedule: Q03DX004 (sc), vehicle: steroid suspending solution, evaluated on day 12) 137 % of control; (dose: 100.0 mg/kg/injection, schedule: Q01DX010 (sc), vehicle: steroid suspending solution, evaluated on day 12) 19, 23, 28 % of control (2×); (dose: 100.0 mg/kg/injection, schedule: Q01DX010 (sc), vehicle: steroid suspending solution, run until all animals had died) 108 % of control. The survivor count (dose: 200.0 mg/kg/injection, schedule: Q01DX010 (sc), vehicle: steroid suspending solution) is 3 of 6.
Turning to `CC(=O)NC1=C(N2CC2)C(=O)C(NC(C)=O)=C(N2CC2)C1=O`, the survivor count is on record as 3 of 6 (dose: 1.0 mg/kg/injection, schedule: Q01DX010 (ip), vehicle: saline) and 0 of 6 (dose: 2.0 mg/kg/injection, schedule: Q01DX010 (ip), vehicle: saline).
With `CN(C)[C@@H]1C(=O)C(C(N)=O)=C(O)[C@@]2(O)C(=O)C3=C(O)c4c(O)cccc4C[C@H]3C[C@@H]12`, the survivor count runs as follows: (dose: 60.0 mg/kg/injection, schedule: Q01DX010 (ip), vehicle: saline) 0 of 6; under setting [7], 0 of 6.
Take `C=C1C[C@H]2[C@@H]3C=C(C)C4=CC(=O)CC[C@]4(C)[C@H]3CC[C@]2(C)[C@@]1(OC(C)=O)C(C)=O`: the T/C runs as follows: (dose: 25.0 mg/kg/injection, schedule: Q01DX010 (sc), vehicle: steroid suspending solution, evaluated on day 12) 137 % of control; (dose: 50.0 mg/kg/injection, schedule: Q01DX010 (sc), vehicle: steroid suspending solution, evaluated on day 12) 134 % of control; (dose: 62.5 mg/kg/injection, schedule: Q01DX010 (sc), vehicle: steroid suspending solution, evaluated on day 12) 129 % of control; (dose: 125.0 mg/kg/injection, schedule: Q01DX001 (sc), vehicle: steroid suspending solution, evaluated on day 12) 125 % of control; (dose: 1000.0 mg/kg/injection, schedule: Q02DX005 (sc), vehicle: steroid suspending solution, evaluated on day 12) 137 % of control.
As for `CC(=O)NCCSC(=O)C(=O)SCCNC(C)=O`, the survivor count under setting [5] is listed as 0 of 6.
As to `Nc1ncnc2[nH]ncc12`, the survivor count (dose: 12.0 mg/kg/injection, schedule: Q01DX010 (ip), vehicle: saline) is on record as 0 of 6.
Consider `Cc1cc(C(C)(C)C)ccc1O`, for which the survivor count (dose: 50.0 mg/kg/injection, schedule: Q01DX011 (ip), vehicle: carboxymethylcellulose (CMC)) is recorded as 3 of 6.
On to `O=C(NCCCCC(NC(=O)OCc1ccccc1)C(=O)NCCCCCCNCCCCCCNC(=O)C(CCCCNC(=O)OCc1ccccc1)NC(=O)OCc1ccccc1)OCc1ccccc1` (stereo unspecified), for which, under “dose: 400.0 mg/kg/injection, schedule: Q01DX010 (ip), vehicle: saline”, the survivor count is on record as 0 of 6.
Consider `CN(C)c1ccc(/C=C/c2ccnc3ccccc23)cc1`, for which the survivor count (dose: 80.0 mg/kg/injection, schedule: Q01DX010 (ip), vehicle: saline) was 2 of 6.

These data come from PubChem BioAssay AID268 (DTP/NCI, 2004).
